Consider one sequence from patent US20160106864 (published 2016).

This data set in a line: Fmoc solid-phase peptide synthesis; MBNA resin. The conditions noted are these: whole synthesis.

Ends that are not written are not given here.

As to GRRRRRRRRRGYKC, the “final purity (method not given)” value is 90% or higher.
